Measured values as given in publication PMC3572085.
Results are given in words; binding and its absence hold for the method and conditions named. Binding seen in cells or lysates may run through a third protein. Some entries that bind do so weakly or less than the wild type. Sequences can lack the tags named with a protein. Blank lines part the entries; values can stand above or below the binder they belong to.

Experiments:
[1] = biological target: T1, HA-CRY1 WT (wild type), transiently expressed in COS7 (mouse) (UniProt P97784); assay: co-IP; COS7 transiently co-expressing HA-CRY1 WT and truncated GFP-tagged TIM proteins; IP anti-HA, blot anti-GFP
T1 sequence: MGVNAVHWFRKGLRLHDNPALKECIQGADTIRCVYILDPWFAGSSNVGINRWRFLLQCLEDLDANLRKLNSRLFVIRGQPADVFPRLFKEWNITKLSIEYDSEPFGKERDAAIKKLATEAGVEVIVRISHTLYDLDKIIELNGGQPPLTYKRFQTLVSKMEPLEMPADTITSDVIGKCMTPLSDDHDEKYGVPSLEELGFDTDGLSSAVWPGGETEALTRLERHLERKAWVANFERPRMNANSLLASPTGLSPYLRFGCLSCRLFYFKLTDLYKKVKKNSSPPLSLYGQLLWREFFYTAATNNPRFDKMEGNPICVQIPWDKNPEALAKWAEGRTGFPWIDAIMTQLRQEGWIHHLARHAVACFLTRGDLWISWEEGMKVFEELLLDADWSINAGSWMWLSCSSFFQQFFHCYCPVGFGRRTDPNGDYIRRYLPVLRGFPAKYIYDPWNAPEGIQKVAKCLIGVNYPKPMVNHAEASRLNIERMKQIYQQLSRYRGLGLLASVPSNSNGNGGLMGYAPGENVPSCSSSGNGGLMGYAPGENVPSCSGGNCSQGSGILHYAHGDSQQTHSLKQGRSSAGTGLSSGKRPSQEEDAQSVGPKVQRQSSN

[2] = biological target: T2, HA-CRY1 WT stably expressed in NIH 3T3^HA-CRY1 cells (mouse) (UniProt P97784); assay: co-IP; anti-HA immunoprecipitation of HA-CRY1 from lysates of NIH 3T3^HA-CRY1 cells (buffer with increasing amounts of TritonX; plain NIH3T3 as control), blot with anti-TIM
T2 sequence: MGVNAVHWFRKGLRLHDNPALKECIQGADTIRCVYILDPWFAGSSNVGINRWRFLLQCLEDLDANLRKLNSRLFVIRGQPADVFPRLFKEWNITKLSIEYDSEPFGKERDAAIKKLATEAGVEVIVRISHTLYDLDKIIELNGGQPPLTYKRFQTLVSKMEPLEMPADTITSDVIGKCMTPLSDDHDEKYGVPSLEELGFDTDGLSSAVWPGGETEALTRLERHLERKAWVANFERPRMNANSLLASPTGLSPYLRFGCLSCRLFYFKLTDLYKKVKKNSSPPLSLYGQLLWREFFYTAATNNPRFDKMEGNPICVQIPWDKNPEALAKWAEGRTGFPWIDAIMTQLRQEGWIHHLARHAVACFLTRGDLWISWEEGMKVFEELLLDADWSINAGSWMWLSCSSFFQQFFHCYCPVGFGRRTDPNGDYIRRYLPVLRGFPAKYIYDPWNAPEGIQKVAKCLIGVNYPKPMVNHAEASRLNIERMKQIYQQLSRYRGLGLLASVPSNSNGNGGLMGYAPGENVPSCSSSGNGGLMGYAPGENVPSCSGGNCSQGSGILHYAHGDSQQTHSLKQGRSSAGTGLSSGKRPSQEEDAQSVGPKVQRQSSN

[3] = biological target: T3, l-TIM-V5, C-terminally V5 tagged full length mouse TIMELESS, TIM(1–1198)-V5 (mouse) (UniProt Q9R1X4); assay: co-IP; COS7 co-expressing all three of HA-CRY1 (WT or mutNLSc), l-TIM-V5 and PER2-GFP; IP of each with anti-HA, anti-V5 or anti-GFP, blots with the corresponding antibodies
T3 sequence: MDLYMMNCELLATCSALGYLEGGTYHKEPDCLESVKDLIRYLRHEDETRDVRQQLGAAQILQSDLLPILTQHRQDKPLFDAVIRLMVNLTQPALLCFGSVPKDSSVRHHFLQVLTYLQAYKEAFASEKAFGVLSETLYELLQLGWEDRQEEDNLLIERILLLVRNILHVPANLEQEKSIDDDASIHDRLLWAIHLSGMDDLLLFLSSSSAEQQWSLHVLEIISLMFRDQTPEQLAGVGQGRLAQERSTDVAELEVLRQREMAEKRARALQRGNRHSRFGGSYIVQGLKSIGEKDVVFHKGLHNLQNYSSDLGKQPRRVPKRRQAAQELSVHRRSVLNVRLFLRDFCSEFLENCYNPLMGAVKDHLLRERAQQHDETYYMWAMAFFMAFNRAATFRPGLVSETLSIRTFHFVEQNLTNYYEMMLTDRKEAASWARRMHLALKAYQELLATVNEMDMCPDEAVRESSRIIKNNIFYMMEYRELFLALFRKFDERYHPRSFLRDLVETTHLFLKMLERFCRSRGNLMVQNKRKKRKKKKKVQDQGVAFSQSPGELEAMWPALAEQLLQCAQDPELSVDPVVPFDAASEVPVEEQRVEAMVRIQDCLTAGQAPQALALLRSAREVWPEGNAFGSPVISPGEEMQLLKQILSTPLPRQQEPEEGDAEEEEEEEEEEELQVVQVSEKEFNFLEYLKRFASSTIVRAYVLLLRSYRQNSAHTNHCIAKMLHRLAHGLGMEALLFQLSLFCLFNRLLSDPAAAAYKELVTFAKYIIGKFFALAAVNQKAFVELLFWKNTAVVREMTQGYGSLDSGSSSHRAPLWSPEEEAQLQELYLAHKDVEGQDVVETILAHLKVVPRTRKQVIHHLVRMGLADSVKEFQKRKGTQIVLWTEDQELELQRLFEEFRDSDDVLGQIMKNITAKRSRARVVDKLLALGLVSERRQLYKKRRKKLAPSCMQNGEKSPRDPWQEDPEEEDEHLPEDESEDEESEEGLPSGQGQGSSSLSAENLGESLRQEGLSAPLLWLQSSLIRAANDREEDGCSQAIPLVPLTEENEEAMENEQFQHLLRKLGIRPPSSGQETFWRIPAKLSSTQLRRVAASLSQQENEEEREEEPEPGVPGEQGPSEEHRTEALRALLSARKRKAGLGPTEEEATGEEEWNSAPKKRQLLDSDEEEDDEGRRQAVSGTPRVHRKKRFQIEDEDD

[4] = biological target: T3, l-TIM-V5, C-terminally V5 tagged full length mouse TIMELESS, TIM(1–1198)-V5 (mouse); assay: co-IP; COS7 transiently co-expressing l-TIM-V5 and HA-CRY1 (wild type or mutant); IP anti-V5, blot anti-HA
[5] = biological target: T4, Flag-CHK1 (UniProt O14757); assay: co-IP; cells transfected with Flag-CHK1 and TIM deletion constructs (HEK293 by the legend, COS7 by the text); IP anti-Flag, blot anti-V5 and anti-GFP
T4 sequence: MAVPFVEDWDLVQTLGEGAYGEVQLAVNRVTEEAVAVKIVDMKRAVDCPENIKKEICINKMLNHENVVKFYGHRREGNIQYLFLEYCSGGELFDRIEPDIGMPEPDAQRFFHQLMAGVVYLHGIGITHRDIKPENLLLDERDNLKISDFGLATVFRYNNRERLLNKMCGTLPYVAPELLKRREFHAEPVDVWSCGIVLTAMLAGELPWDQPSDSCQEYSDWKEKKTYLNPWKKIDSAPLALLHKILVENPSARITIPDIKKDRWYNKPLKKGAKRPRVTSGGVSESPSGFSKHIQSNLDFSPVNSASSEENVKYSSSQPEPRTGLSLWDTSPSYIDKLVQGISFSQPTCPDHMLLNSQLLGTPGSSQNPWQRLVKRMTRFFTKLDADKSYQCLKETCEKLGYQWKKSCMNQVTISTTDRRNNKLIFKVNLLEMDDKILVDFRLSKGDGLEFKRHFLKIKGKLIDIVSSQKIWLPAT

- binding [1]: binds
B1: TIM(1–1079)-GFP (domain or fragment, UniProt Q9R1X4 1-1079)
chain: MDLYMMNCELLATCSALGYLEGGTYHKEPDCLESVKDLIRYLRHEDETRDVRQQLGAAQILQSDLLPILTQHRQDKPLFDAVIRLMVNLTQPALLCFGSVPKDSSVRHHFLQVLTYLQAYKEAFASEKAFGVLSETLYELLQLGWEDRQEEDNLLIERILLLVRNILHVPANLEQEKSIDDDASIHDRLLWAIHLSGMDDLLLFLSSSSAEQQWSLHVLEIISLMFRDQTPEQLAGVGQGRLAQERSTDVAELEVLRQREMAEKRARALQRGNRHSRFGGSYIVQGLKSIGEKDVVFHKGLHNLQNYSSDLGKQPRRVPKRRQAAQELSVHRRSVLNVRLFLRDFCSEFLENCYNPLMGAVKDHLLRERAQQHDETYYMWAMAFFMAFNRAATFRPGLVSETLSIRTFHFVEQNLTNYYEMMLTDRKEAASWARRMHLALKAYQELLATVNEMDMCPDEAVRESSRIIKNNIFYMMEYRELFLALFRKFDERYHPRSFLRDLVETTHLFLKMLERFCRSRGNLMVQNKRKKRKKKKKVQDQGVAFSQSPGELEAMWPALAEQLLQCAQDPELSVDPVVPFDAASEVPVEEQRVEAMVRIQDCLTAGQAPQALALLRSAREVWPEGNAFGSPVISPGEEMQLLKQILSTPLPRQQEPEEGDAEEEEEEEEEEELQVVQVSEKEFNFLEYLKRFASSTIVRAYVLLLRSYRQNSAHTNHCIAKMLHRLAHGLGMEALLFQLSLFCLFNRLLSDPAAAAYKELVTFAKYIIGKFFALAAVNQKAFVELLFWKNTAVVREMTQGYGSLDSGSSSHRAPLWSPEEEAQLQELYLAHKDVEGQDVVETILAHLKVVPRTRKQVIHHLVRMGLADSVKEFQKRKGTQIVLWTEDQELELQRLFEEFRDSDDVLGQIMKNITAKRSRARVVDKLLALGLVSERRQLYKKRRKKLAPSCMQNGEKSPRDPWQEDPEEEDEHLPEDESEDEESEEGLPSGQGQGSSSLSAENLGESLRQEGLSAPLLWLQSSLIRAANDREEDGCSQAIPLVPLTEENEEAMENEQFQHLLRKLGIRPPSSGQETFWRI

- binding [2]: binds
B2: endogenous TIM of NIH 3T3 cells (protein, UniProt Q9R1X4 1-1197)
chain: MDLYMMNCELLATCSALGYLEGGTYHKEPDCLESVKDLIRYLRHEDETRDVRQQLGAAQILQSDLLPILTQHRQDKPLFDAVIRLMVNLTQPALLCFGSVPKDSSVRHHFLQVLTYLQAYKEAFASEKAFGVLSETLYELLQLGWEDRQEEDNLLIERILLLVRNILHVPANLEQEKSIDDDASIHDRLLWAIHLSGMDDLLLFLSSSSAEQQWSLHVLEIISLMFRDQTPEQLAGVGQGRLAQERSTDVAELEVLRQREMAEKRARALQRGNRHSRFGGSYIVQGLKSIGEKDVVFHKGLHNLQNYSSDLGKQPRRVPKRRQAAQELSVHRRSVLNVRLFLRDFCSEFLENCYNPLMGAVKDHLLRERAQQHDETYYMWAMAFFMAFNRAATFRPGLVSETLSIRTFHFVEQNLTNYYEMMLTDRKEAASWARRMHLALKAYQELLATVNEMDMCPDEAVRESSRIIKNNIFYMMEYRELFLALFRKFDERYHPRSFLRDLVETTHLFLKMLERFCRSRGNLMVQNKRKKRKKKKKVQDQGVAFSQSPGELEAMWPALAEQLLQCAQDPELSVDPVVPFDAASEVPVEEQRVEAMVRIQDCLTAGQAPQALALLRSAREVWPEGNAFGSPVISPGEEMQLLKQILSTPLPRQQEPEEGDAEEEEEEEEEEELQVVQVSEKEFNFLEYLKRFASSTIVRAYVLLLRSYRQNSAHTNHCIAKMLHRLAHGLGMEALLFQLSLFCLFNRLLSDPAAAAYKELVTFAKYIIGKFFALAAVNQKAFVELLFWKNTAVVREMTQGYGSLDSGSSSHRAPLWSPEEEAQLQELYLAHKDVEGQDVVETILAHLKVVPRTRKQVIHHLVRMGLADSVKEFQKRKGTQIVLWTEDQELELQRLFEEFRDSDDVLGQIMKNITAKRSRARVVDKLLALGLVSERRQLYKKRRKKLAPSCMQNGEKSPRDPWQEDPEEEDEHLPEDESEDEESEEGLPSGQGQGSSSLSAENLGESLRQEGLSAPLLWLQSSLIRAANDREEDGCSQAIPLVPLTEENEEAMENEQFQHLLRKLGIRPPSSGQETFWRIPAKLSSTQLRRVAASLSQQENEEEREEEPEPGVPGEQGPSEEHRTEALRALLSARKRKAGLGPTEEEATGEEEWNSAPKKRQLLDSDEEEDDEGRRQAVSGTPRVHRKKRFQIEDEDD

The remaining lines, values behind:

B3: GFP-TIM(1079–1198) (domain or fragment, UniProt Q9R1X4 1079-1197)
chain: IPAKLSSTQLRRVAASLSQQENEEEREEEPEPGVPGEQGPSEEHRTEALRALLSARKRKAGLGPTEEEATGEEEWNSAPKKRQLLDSDEEEDDEGRRQAVSGTPRVHRKKRFQIEDEDD
- binding [1]: no binding

B4: HA-CRY1 WT (wild type), transiently expressed in COS7 (protein, UniProt P97784 1-606)
chain: MGVNAVHWFRKGLRLHDNPALKECIQGADTIRCVYILDPWFAGSSNVGINRWRFLLQCLEDLDANLRKLNSRLFVIRGQPADVFPRLFKEWNITKLSIEYDSEPFGKERDAAIKKLATEAGVEVIVRISHTLYDLDKIIELNGGQPPLTYKRFQTLVSKMEPLEMPADTITSDVIGKCMTPLSDDHDEKYGVPSLEELGFDTDGLSSAVWPGGETEALTRLERHLERKAWVANFERPRMNANSLLASPTGLSPYLRFGCLSCRLFYFKLTDLYKKVKKNSSPPLSLYGQLLWREFFYTAATNNPRFDKMEGNPICVQIPWDKNPEALAKWAEGRTGFPWIDAIMTQLRQEGWIHHLARHAVACFLTRGDLWISWEEGMKVFEELLLDADWSINAGSWMWLSCSSFFQQFFHCYCPVGFGRRTDPNGDYIRRYLPVLRGFPAKYIYDPWNAPEGIQKVAKCLIGVNYPKPMVNHAEASRLNIERMKQIYQQLSRYRGLGLLASVPSNSNGNGGLMGYAPGENVPSCSSSGNGGLMGYAPGENVPSCSGGNCSQGSGILHYAHGDSQQTHSLKQGRSSAGTGLSSGKRPSQEEDAQSVGPKVQRQSSN
- binding [3]: no binding (condition: with co-expressed PER2-GFP)
- binding [4]: binds

B5: TIM(1–309)-GFP (domain or fragment, UniProt Q9R1X4 1-309)
chain: MDLYMMNCELLATCSALGYLEGGTYHKEPDCLESVKDLIRYLRHEDETRDVRQQLGAAQILQSDLLPILTQHRQDKPLFDAVIRLMVNLTQPALLCFGSVPKDSSVRHHFLQVLTYLQAYKEAFASEKAFGVLSETLYELLQLGWEDRQEEDNLLIERILLLVRNILHVPANLEQEKSIDDDASIHDRLLWAIHLSGMDDLLLFLSSSSAEQQWSLHVLEIISLMFRDQTPEQLAGVGQGRLAQERSTDVAELEVLRQREMAEKRARALQRGNRHSRFGGSYIVQGLKSIGEKDVVFHKGLHNLQNYSS
- binding [1]: binds
- binding [5]: binds
